The values below come from PubChem BioAssay AID2685 (National Center for Advancing Translational Sciences (NCATS), 2010).

The experiment is described as follows: qHTS Assay for Lipid Storage Modulators in Drosophila S3 Cells.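 For cell number change: cells counted by Cell Tracker Red CMTPX staining in the red channel.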 To be noted: BODIPY lipid droplet fluorescence, 18-24 h; for cell number change: measured here: cell count max response, cells fed with added oleic acid. The gist of the method:
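Drosophila S3 cells loaded with oleic acid (400 uM, as added) and compounds at several concentrations; lipid droplets imaged by 488-nm laser-scanning cytometry, 500–530 nm intensity and object ratio to cell channel. Percent activity normalized to 20 uM Triacsin C.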
(Quantitative high-throughput screening tests each substance at several concentrations.)

[1] abbreviates: measured here: lipid fluorescence (Fed channel) AC50, cells fed with added oleic acid.
The mark [2] stands for this setting: measured here: cell number channel AC50, cells fed with added oleic acid.

The structures appear in SMILES notation. The list shows a part of the results. Further columns of the screen follow, without active or inactive calls. Compounds called inactive in the main read-out are mostly missing here. The note in brackets gives the kind of curve behind each potency; many fits are weak.

The AC50 is the concentration at which the activity in the assay is half-maximal. Higher therefore signals weaker potency. For `NNC(=O)CNS(=O)(=O)c1ccc([N+](=O)[O-])cc1`, the AC50 under setting [1] was 0.366 µM [rising, single point].

As to `C=CCn1c(CCNC(=O)c2ccccc2F)nnc1SCC(=O)Nc1ccccc1F`, the cell number change came to 23.2%. The AC50 under setting [1] was 23.1 µM [rising, partial curve].

Turning to `Cc1ccc(C(=O)Nc2ccccc2C(N)=O)o1`, the cell number change was -13.2%. Moreover, the AC50 under setting [2] was 0.0058 µM [falling, full curve, poor fit]. Also, under setting [1], the AC50 was 2.59 µM [rising, full curve].

`COc1ccc(/C=C/C(=O)N2CCN(c3ccccn3)CC2)c2ccccc12`: the cell number change came to 15.9%.

Consider `CC(C)C(=O)OCC(=O)Nc1ccc(N=Nc2ccccc2)cc1`, for which the cell number change is -0.603%. The AC50 under setting [1] is 0.164 µM [rising, full curve, poor fit].

Consider `COc1ccc(N2CC(C(=O)Nc3ccc(S(=O)(=O)Nc4nccs4)cc3)CC2=O)cc1` (centres undefined), for which the cell number change came to 65.1%. In addition, under setting [2], the AC50 was 23.1 µM [rising, single point].

On to `NS(=O)(=O)c1ccc(CCNC(=O)CNC(=O)c2ccccc2Br)cc1`, for which the cell number change was -14.5%.

Turning to `N#Cc1ccc(S(=O)(=O)N2CCC(C(=O)N3CCN(Cc4ccc5c(c4)OCO5)CC3)CC2)cc1`, the cell number change is -34.9%. In addition, the AC50 under setting [2] was 11.6 µM [falling, partial curve]. Also, under setting [1], the AC50 was 0.164 µM [falling, full curve, poor fit].

With `COc1cccc(CNC(=O)COc2cc3c(c4oc(=O)cc(C)c24)CCC(C)(C)O3)c1`, the AC50 under setting [1] is 29.1 µM [falling, single point].

For the compound `C=CCOc1nc2c(c(=O)n(C)c(=O)n2C)n1Cc1ccccc1`, the cell number change was determined as 23.9%. The AC50 under setting [1] was 29.1 µM [rising, single point].

Take `O=C(Cn1cc2c(n1)CCCC2)N1CCOCC1`: the cell number change turned out to be 5.45%. Further, the AC50 under setting [1] is 29.1 µM [rising, single point].

As to `COc1cc(NS(C)(=O)=O)c(OC)cc1NC(=O)c1cccc(F)c1`, the cell number change was 14.4%. Also, the AC50 under setting [1] is 13 µM [rising, partial curve].

On to `CCOC(=O)C1=C(c2ccccc2)ON(C)C1c1ccccc1` (centres undefined), for which the cell number change worked out at 5.66%.

Turning to `Cn1c(CCNC(=O)c2ccco2)nc2cc(NC(=O)c3ccccc3)ccc21`, the cell number change was -13%.

`CCOC(CNC(=O)c1ccc2nc(N3CCC(C)CC3)sc2c1)OCC`: the AC50 under setting [2] was 1.64 µM [rising, partial curve, poor fit].

As to `CC(=O)c1cc(C(=O)Nc2ccc(C(=O)O)cc2)oc1C`, the cell number change is -35.2%. For the same compound, the AC50 under setting [2] is 0.326 µM [falling, full curve]. In addition, under setting [1], the AC50 was 29.1 µM [falling, single point].

With `COCCN(CCOC)c1nc(-c2ccccc2)nc2ccccc12`, the cell number change came out at 3.86%.

For `Cc1ccc(NC2=C(Cl)C(=O)OC2OC(=O)c2ccco2)cc1` (centres undefined), the cell number change turned out to be 0.297%. Moreover, the AC50 under setting [1] is 0.259 µM [rising, full curve].

Regarding `CCCS(=O)(=O)c1cn2cccc(N)c2c1S(=O)(=O)CCC`, the cell number change was 4.46%. Further, the AC50 under setting [1] was 18.4 µM [rising, partial curve, poor fit].

Regarding `CCOC(=O)c1c(CNCCN(CC)CC)n(C)c2cc(Br)c(OC)cc12`, the cell number change is -6.59%. The AC50 under setting [1] is 18.4 µM [rising, partial curve].

With `CC1CN(S(=O)(=O)c2cccc(-c3csc(-c4ccccc4)n3)c2)CC(C)O1` (centres undefined), the cell number change was determined as 18.2%. Further, under setting [2], the AC50 was 1.64 µM [rising, partial curve, poor fit]. The AC50 under setting [1] is 18.4 µM [rising, partial curve].

For the compound `COCCNC(=O)c1n[nH]c2ccccc12`, the cell number change was -15.4%. Besides, under setting [1], the AC50 is 0.103 µM [falling, full curve, poor fit].

In the case of `Cc1cc(Cl)ccc1NC(=O)CN1C(=O)NC2(CCCC2)C1=O`, the cell number change is -26.3%.

In the case of `CC1OC(OC2C(OC3C(O[C@H]4CC[C@]5(C)C6C=C[C@]78OC[C@@]9(CC[C@@H](C)[C@H](C)C97)[C@H](O)C[C@@]8(C)[C@]6(C)CC[C@H]5C4(C)C)OC(C)C(O)C3O)OC(CO)C(O)C2O)C(O)C(O)C1O` (some centres undefined), the cell number change was -9.18%.

In the case of `Cc1nnc2n(Cc3ccccc3)c(=O)c3c4c(sc3n12)CN(Cc1ccccc1)CC4`, the cell number change is -0.949%.

With `CC(C)N(Cc1ccccc1)C(=S)Nc1cccnc1`, the cell number change is 66.2%.

Regarding `Cc1nn(-c2ccccc2)c(C)c1NC(=O)COc1ccc(F)cc1Cl`, the cell number change is -23.1%. Also, the AC50 under setting [2] was 0.00411 µM [falling, full curve, poor fit]. Under setting [1], the AC50 was 0.651 µM [falling, full curve, poor fit].

For the compound `OCCc1ccc(O)c(-n2nc3ccccc3n2)c1`, the cell number change was -1.8%.

Take `O=C(OCc1nc2ccccc2[n+]([O-])c1C(=O)c1ccccc1)c1cccs1`: the cell number change stood at 20.2%. The AC50 under setting [1] was 0.00461 µM [rising, full curve, poor fit].

Regarding `COc1ccc(/C=C2\Oc3cc(OCC(=O)N4CC(O)C[C@H]4C(=O)O)ccc3C2=O)c(OC)c1OC` (some centres undefined), the cell number change came out at 33%. Besides, the AC50 under setting [2] was 2.06 µM [rising, full curve, poor fit]. Moreover, under setting [1], the AC50 was 6.51 µM [rising, single point].

On to `O=C(CC1SC(=O)N(Cc2ccc(Cl)cc2)C1=O)Nc1nccs1` (centres undefined), for which the cell number change amounted to 33.1%. For the same compound, the AC50 under setting [2] is 7.31 µM [rising, partial curve, poor fit].

With `Fc1ccccc1-c1nc(NCCCN2CCOCC2)c2ccccc2n1`, the cell number change is -9.02%. Further, the AC50 under setting [1] was 8.2 µM [rising, partial curve].

As for `O=C(CN1C(=O)NC(c2ccccc2)(c2ccccc2)C1=O)NC1CCS(=O)(=O)C1` (centres undefined), the cell number change is 5.4%. Also, the AC50 under setting [1] was 0.461 µM [rising, full curve, poor fit].

`O=C(Nc1cc(Cl)ccc1-n1cncn1)c1ccc(Br)o1`: the cell number change is -59.4%.

Take `CSc1nnc([C@@H]2CCCN2C(=O)OC(C)(C)C)o1`: the cell number change worked out at 15.2%. Besides, the AC50 under setting [2] was 0.164 µM [rising, full curve, poor fit].

Consider `O=C(CC1SC(=Nc2cccc3ccccc23)N(Cc2ccccn2)C1=O)Nc1ccccc1Br` (centres undefined), for which the cell number change is -11.9%. In addition, the AC50 under setting [1] was 0.651 µM [rising, single point].

For the compound `CCN1CCN(C(=S)NC(=O)c2cccs2)CC1`, the cell number change came out at 2.86%.

In the case of `O=C1CC(c2nc3ccccc3[nH]2)CN1c1ccccc1` (centres undefined), the AC50 under setting [2] is 0.58 µM [rising, single point].

`CN(C)C(CNC(=O)c1ccc(S(=O)(=O)Nc2ccccc2F)cc1)c1ccccc1` (centres undefined): the cell number change stood at 40.9%. Besides, under setting [2], the AC50 is 11.6 µM [rising, partial curve, poor fit].

Regarding `NC(=O)c1cnn2c(C(F)(F)F)cc(-c3ccc(F)cc3)nc12`, the cell number change was -19.2%.
